Test results reported in article PMC8608904.
Residue numbers refer to the chain shown, from its start. No constants are given. Whether binding was seen depends on the method and setting. In cells and extracts the contact can be indirect. Some results given as binding are weak or reduced against the parent protein; the word gives no strength.

Sequences of proteins named here, by UniProt entry; tags and fusion partners are left off.
UniProt Q91YH6: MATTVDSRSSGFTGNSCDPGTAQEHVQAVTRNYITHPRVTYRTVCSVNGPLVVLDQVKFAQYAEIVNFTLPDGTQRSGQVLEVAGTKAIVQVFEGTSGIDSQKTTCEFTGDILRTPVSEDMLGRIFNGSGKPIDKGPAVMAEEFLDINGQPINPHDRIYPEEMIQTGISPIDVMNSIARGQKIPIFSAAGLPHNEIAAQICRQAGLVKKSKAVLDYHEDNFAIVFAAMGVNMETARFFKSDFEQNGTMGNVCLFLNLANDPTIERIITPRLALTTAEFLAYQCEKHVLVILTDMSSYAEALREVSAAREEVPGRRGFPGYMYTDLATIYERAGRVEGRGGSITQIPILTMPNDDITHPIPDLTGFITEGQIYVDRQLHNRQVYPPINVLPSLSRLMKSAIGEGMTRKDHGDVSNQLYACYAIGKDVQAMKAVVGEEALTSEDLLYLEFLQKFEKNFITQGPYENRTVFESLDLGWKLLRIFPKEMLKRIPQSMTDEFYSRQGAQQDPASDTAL

Legend:
Ncoa7 (751–943) (mouse) = target: T1, Ncoa7 (751–943) (mouse) (UniProt Q6DFV7); assay: pull-down; about 14 pmol purified GST-tagged bait on glutathione-Sepharose 4B beads, incubated with mouse kidney lysate (25 mM Tris-HCl pH 7.4, 150 mM NaCl, 5 mM EDTA, 1% Triton X-100); western blot with anti-B1; only the target purified
T1 sequence: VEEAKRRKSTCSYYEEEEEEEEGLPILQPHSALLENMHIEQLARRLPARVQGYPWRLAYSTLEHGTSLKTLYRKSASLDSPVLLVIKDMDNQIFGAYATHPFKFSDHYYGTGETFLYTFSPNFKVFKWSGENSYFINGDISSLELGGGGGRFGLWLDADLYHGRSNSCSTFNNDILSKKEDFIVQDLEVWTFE

[1] = target: T2, Ncoa7 TLDc domain (775–943) (mouse) (UniProt Q6DFV7); assay: as above
T2 sequence: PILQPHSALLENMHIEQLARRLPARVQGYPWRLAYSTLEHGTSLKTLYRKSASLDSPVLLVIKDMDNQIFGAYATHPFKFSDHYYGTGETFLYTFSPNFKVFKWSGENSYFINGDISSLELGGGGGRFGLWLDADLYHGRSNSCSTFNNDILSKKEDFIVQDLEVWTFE

[2] = target: T3, Oxr1 TLDc domain (698–866) (mouse) (UniProt Q4KMM3); assay: as above
T3 sequence: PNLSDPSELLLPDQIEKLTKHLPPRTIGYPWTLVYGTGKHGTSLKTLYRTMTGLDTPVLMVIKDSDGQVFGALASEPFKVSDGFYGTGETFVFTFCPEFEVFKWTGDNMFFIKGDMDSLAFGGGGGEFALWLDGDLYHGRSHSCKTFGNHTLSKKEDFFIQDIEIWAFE

[3] = target: T4, S817A mutant of the TLDc domain of Ncoa7 (775–943) (mouse) (UniProt Q6DFV7); assay: as above
T4 sequence: T2 sequence with S43A

[4] = target: T5, C-terminal Ncoa7 (593–943) (mouse) (UniProt Q6DFV7); assay: as above
T5 sequence: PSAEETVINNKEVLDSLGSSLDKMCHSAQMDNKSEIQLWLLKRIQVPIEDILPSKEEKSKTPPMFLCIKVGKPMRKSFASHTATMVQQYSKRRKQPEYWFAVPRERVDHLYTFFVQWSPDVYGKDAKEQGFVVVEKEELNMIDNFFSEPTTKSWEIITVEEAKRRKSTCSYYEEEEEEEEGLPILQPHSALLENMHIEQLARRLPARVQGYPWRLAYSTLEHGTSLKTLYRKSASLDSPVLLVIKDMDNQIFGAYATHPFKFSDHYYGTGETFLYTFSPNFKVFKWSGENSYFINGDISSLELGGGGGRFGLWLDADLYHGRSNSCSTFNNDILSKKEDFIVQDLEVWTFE

[5] = target: T6, Tbc1d24 (336-446_496-556) (mouse) (UniProt Q3UUG6); assay: condition: approximately 14 pmol of GST-tagged protein on beads; pull-down; about 14 pmol purified GST-tagged bait on glutathione-Sepharose 4B beads, incubated with mouse kidney lysate (25 mM Tris-HCl pH 7.4, 150 mM NaCl, 5 mM EDTA, 1% Triton X-100); western blot with anti-B1; only the target purified
T6 sequence: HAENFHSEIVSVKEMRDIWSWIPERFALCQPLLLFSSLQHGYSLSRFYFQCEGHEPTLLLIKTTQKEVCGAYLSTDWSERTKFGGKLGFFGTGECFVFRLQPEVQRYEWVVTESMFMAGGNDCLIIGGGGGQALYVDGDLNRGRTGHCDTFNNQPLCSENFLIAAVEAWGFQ

[6] = target: T7, G896A mutant of the TLDc domain of Ncoa7 (775–943) (mouse) (UniProt Q6DFV7); assay: as above
T7 sequence: T2 sequence with G122A

Ncoa7 (593–750) (mouse) = target: T8, Ncoa7 (593–750) (mouse) (UniProt Q6DFV7); assay: as above
T8 sequence: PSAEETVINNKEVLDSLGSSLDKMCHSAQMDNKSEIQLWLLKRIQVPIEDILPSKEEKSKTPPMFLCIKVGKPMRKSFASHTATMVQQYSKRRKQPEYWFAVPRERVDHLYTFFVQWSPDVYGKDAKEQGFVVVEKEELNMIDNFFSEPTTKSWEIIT

B1 subunit of V-ATPase (from UniProt Q91YH6 1-513)
binding (Ncoa7 (751–943) (mouse)): binds
binding [1]: binds
binding [2]: binds
binding [3]: binds
binding [4]: binds
binding [5]: no binding
binding [6]: no binding
binding (Ncoa7 (593–750) (mouse)): no binding
